## Screening data

By UniProt entry, the sequences of proteins in these tests, tags left out.
UniProt P46063, whole entry, target on record: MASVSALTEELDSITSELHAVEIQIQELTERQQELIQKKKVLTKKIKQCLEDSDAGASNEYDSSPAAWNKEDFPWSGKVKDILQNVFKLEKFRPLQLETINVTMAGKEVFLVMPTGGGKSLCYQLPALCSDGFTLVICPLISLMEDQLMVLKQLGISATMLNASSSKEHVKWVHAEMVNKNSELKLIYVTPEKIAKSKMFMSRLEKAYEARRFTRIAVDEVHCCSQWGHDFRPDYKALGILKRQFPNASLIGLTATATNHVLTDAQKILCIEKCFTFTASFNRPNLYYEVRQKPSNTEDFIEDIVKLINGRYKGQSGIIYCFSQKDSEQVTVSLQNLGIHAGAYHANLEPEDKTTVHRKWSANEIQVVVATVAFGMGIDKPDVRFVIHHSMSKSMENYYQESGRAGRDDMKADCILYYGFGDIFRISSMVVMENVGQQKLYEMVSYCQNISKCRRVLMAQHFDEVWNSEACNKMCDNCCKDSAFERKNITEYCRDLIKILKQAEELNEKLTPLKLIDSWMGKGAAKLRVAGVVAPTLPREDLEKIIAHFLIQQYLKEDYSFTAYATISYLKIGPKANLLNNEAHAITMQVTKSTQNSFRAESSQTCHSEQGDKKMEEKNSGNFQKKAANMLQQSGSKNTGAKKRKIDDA

Data taken from PubChem BioAssay AID2353, deposited by NCATS (2010).

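Inhibition of RECQ1 DNA unwinding, tracked by the rise in red rhodamine fluorescence as the quencher-labelled strands part, with readings taken two hours apart.
Each compound was tested as a dilution series from about 0.2 to roughly 26 µM.
The number is the fitted half-maximal inhibitory potency (AC50), and a lower value means a more potent inhibitor.
Calls come from the dose-curve class and fitted potency; every row here is inconclusive, mostly with inhibition seen only at the highest dose.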

Values are in µM.
Every entry below has the call inconclusive.
Only part of the assay is shown, chiefly results filed as inconclusive.
A potency from a partial, single-point or poor curve is only a rough figure.
Some entries filed as inconclusive have a full curve.

- CC(C)c1ccc2c(c1)c(SC(C)(C)C)c(CC(C)(C)C(=O)O)n2Cc1ccc(Cl)cc1 | Potency 10 µM (inhibitor, single point)
- Clc1ccc(C(c2ccc(Cl)cc2)n2cc[n+](CC(OCc3ccc(Cl)cc3Cl)c3ccc(Cl)cc3Cl)c2)cc1 (centres unmarked) | Potency 10 µM (inhibitor, single point)
- Cc1cc(C)c(/C=C2\C(=O)Nc3ccccc32)[nH]1 | Potency 15.85 µM (inhibitor, single point)
- O=[N+]([O-])c1ccc(-c2nc(-c3ccc(F)cc3)c(-c3ccncc3)[nH]2)cc1 | Potency 3.162 µM (inhibitor, full curve)
- CC(C)(Sc1ccc(CCN(CCCCC2CCCCC2)C(=O)NC2CCCCC2)cc1)C(=O)O | Potency 15.85 µM (inhibitor, single point)
- COc1cc(NS(C)(=O)=O)ccc1Nc1c2ccccc2nc2ccccc12 | Potency 11.22 µM (inhibitor, single point)
- Cn1cc(C2=C(c3ccc(Cl)cc3Cl)C(=O)NC2=O)c2ccccc21 | Potency 15.85 µM (inhibitor, single point)
- CC(=O)c1c(O)c(C)c(O)c(Cc2c(O)c3c(c(C(=O)/C=C/c4ccccc4)c2O)OC(C)(C)C=C3)c1O | Potency 8.912 µM (inhibitor, single point)
- O=C(Nc1cccc(C(=O)Nc2ccc(S(=O)(=O)O)c3cc(S(=O)(=O)O)cc(S(=O)(=O)O)c23)c1)Nc1cccc(C(=O)Nc2ccc(S(=O)(=O)O)c3cc(S(=O)(=O)O)cc(S(=O)(=O)O)c23)c1 | Potency 15.85 µM (inhibitor, single point)
- Cc1ccc(C(=O)Nc2ccc(S(=O)(=O)O)c3cc(S(=O)(=O)O)cc(S(=O)(=O)O)c23)cc1NC(=O)c1cccc(NC(=O)Nc2cccc(C(=O)Nc3cc(C(=O)Nc4ccc(S(=O)(=O)O)c5cc(S(=O)(=O)O)cc(S(=O)(=O)O)c45)ccc3C)c2)c1 | Potency 15.85 µM (inhibitor, single point)
- CCN(CC)CCCC(C)Nc1c2ccc(Cl)cc2nc2ccc(OC)cc12 (centres unmarked) | Potency 17.78 µM (inhibitor, single point)
- Oc1ccc(C2CNCCc3c2cc(O)c(O)c3Cl)cc1 (centres unmarked) | Potency 11.22 µM (inhibitor, single point)
- COc1ccc2[nH]c3c(c2c1)CCNC3 | Potency 3.548 µM (inhibitor, full curve)

Some entries from above, unchanged:

compound,Potency (µM),remark
Oc1ccc(C2CNCCc3c2cc(O)c(O)c3Cl)cc1 (centres unmarked),11.22,"inhibitor, single point"
Cc1cc(C)c(/C=C2\C(=O)Nc3ccccc32)[nH]1,15.85,"inhibitor, single point"